Measurements from the supplement of paper PMC10470496.
Counter-ions that a name gives are not always drawn. This is one part of the list. Single values are uncertain, as repeats are few or missing.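 Three clinical Candida auris isolates (clades III, IV and I) from the CDC resistance isolate bank were grown in RPMI-1640 at 35°C. Growth was background-corrected OD600 relative to same-plate vehicle-only wells. Hits required over 50% inhibition in at least two strains and a plate-corrected B-score above 0.1.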

Tested on: C. auris AR-387
Experiment: growth relative to vehicle control (OD600 ratio) (fraction); higher = less inhibition
Conditions: 10 µM; 24 h

Structure (SMILES) | growth
Cc1nc(Nc2ncc(C(=O)Nc3c(C)cccc3Cl)s2)cc(N2CCN(CCO)CC2)n1 [Dasatinib Monohydrate] | 0.95
CCN1CCN(Cc2ccc(Nc3ncc(F)c(-c4cc(F)c5nc(C)n(C(C)C)c5c4)n3)nc2)CC1 | 0.7
Cc1c(Cl)cccc1Nc1ccccc1C(=O)O [Tolfenamic Acid] | 0.63
C[N+]1(C)CCC(OC(=O)C(O)(c2ccccc2)C2CCCC2)C1 (stereo not drawn) [Glycopyrrolate] | 0.98
Cc1cc2c(s1)Nc1ccccc1N=C2N1CCN(C)CC1 [Olanzapine] | 1.11
CCC(=O)O[C@]1(C(=O)CCl)[C@@H](C)C[C@H]2[C@@H]3C[C@H](F)C4=CC(=O)C=C[C@]4(C)[C@@]3(F)[C@@H](O)C[C@@]21C [Halobetasol Propionate] | 1.12
CN(C)c1nc(N(C)C)nc(N(C)C)n1 [Altretamine] | 0.94
Cc1cn([C@@H]2C[C@@H](O)[C@H](CO)O2)c(=O)[nH]c1=O [Telbivudine] | 0.85
O=C(CCNNC(=O)c1ccncc1)NCc1ccccc1 [Nialamide] | 0.8
CCCN[C@H]1CCc2nc(N)sc2C1 [Pramipexole] | 1.16
C[N+]1(C)[C@@H]2C[C@@H](OC(=O)C(O)(c3cccs3)c3cccs3)C[C@H]1[C@@H]1O[C@@H]12 [Tiotropium Bromide hydrate] | 0.88
Cc1cccc(C)c1OCC(=O)N[C@@H](Cc1ccccc1)[C@@H](O)C[C@H](Cc1ccccc1)NC(=O)[C@H](C(C)C)N1CCCNC1=O [Lopinavir] | 1.16
CC(CCc1ccccc1)NCC(O)c1ccc(O)c(C(N)=O)c1 (stereo not drawn) [Labetalol HCl] | 0.55
Cc1cccc(Nc2ccccc2C(=O)O)c1C [Mefenamic Acid] | 0.74
COc1cc(C(=O)NC2CCCNC2)cc(OC)c1OC (stereo not drawn) [Troxipide] | 0.91
CCCCc1nc(Cl)c(CO)n1Cc1ccc(-c2ccccc2-c2nnn[nH]2)cc1 [Losartan Potassium (DuP 753)] | 1.08
CC[C@]1(O)C[C@H]2CN(CCc3c([nH]c4ccccc34)[C@@](C(=O)OC)(c3cc4c(cc3OC)N(C=O)[C@H]3[C@@](O)(C(=O)OC)[C@H](OC(C)=O)[C@]5(CC)C=CCN6CC[C@]43[C@@H]65)C2)C1 [Vincristine sulfate] | 0.65

As a working copy, 2 of the compounds above.
Structure (SMILES) | growth
Cc1c(Cl)cccc1Nc1ccccc1C(=O)O [Tolfenamic Acid] | 0.63
C[N+]1(C)CCC(OC(=O)C(O)(c2ccccc2)C2CCCC2)C1 (stereo not drawn) [Glycopyrrolate] | 0.98

Going on with the list:

Structure (SMILES) | growth
CC#C[C@]1(O)CC[C@H]2[C@@H]3CCC4=CC(=O)CCC4=C3[C@@H](c3ccc(N(C)C)cc3)C[C@@]21C [Mifepristone] | 1.19
Cc1nc(C)c(Cl)c(O)c1Cl [Clopidol] | 0.79
O=C1OCCN1/N=C/c1ccc([N+](=O)[O-])o1 [Furazolidone] | 1.19
CN(C)[C@@H]1C(O)=C(C(N)=O)C(=O)[C@@]2(O)C(O)=C3C(=O)c4c(O)cccc4[C@@](C)(O)[C@H]3[C@H](O)[C@@H]12 [Oxytetracycline (Terramycin)] | 0.65
C#C[C@]1(OC(C)=O)CC[C@H]2[C@@H]3CCC4=C[C@@H](OC(C)=O)CC[C@@H]4[C@H]3CC[C@@]21C [Ethynodiol diacetate] | 0.81
OCc1cc(C(O)CNCCCCCCOCCCCc2ccccc2)ccc1O (stereo not drawn) [Salmeterol Xinafoate] | 0.87
C[C@@H](O)[C@H]1C(=O)N2C(C(=O)O)=C(S[C@@H]3CN[C@H](C(=O)N(C)C)C3)[C@H](C)[C@H]12 [Meropenem] | 1.08
CC(O)(P(=O)(O)O)P(=O)(O)O [Etidronate] | 1.11
Cn1c([N+](=O)[O-])cnc1COC(N)=O [Ronidazole] | 1.13
Brc1c(NC2=NCCN2)ccc2nccnc12 [Brimonidine Tartrate] | 0.76
COC(c1ccccc1)(c1ccccc1)[C@H](Oc1nc(C)cc(C)n1)C(=O)O [Ambrisentan] | 0.76
CC(=O)N[C@@H](CCC(N)=O)C(=O)O [Aceglutamide] | 0.77
CC[C@@H]([C@H](C)O)n1ncn(-c2ccc(N3CCN(c4ccc(OC[C@@H]5CO[C@@](Cn6cncn6)(c6ccc(F)cc6F)C5)cc4)CC3)cc2)c1=O [Posaconazole] | 0.05
Cc1nc(=O)c2cc(CN(C)c3ccc(C(=O)N[C@@H](CCC(=O)O)C(=O)O)s3)ccc2[nH]1 [Raltitrexed] | 1.28
Cc1cn[nH]c1 [Fomepizole] | 0.91
COc1ccc2c(c1)c(CC(=O)OCC(=O)O)c(C)n2C(=O)c1ccc(Cl)cc1 [Acemetacin] | 0.8
